Measured values: the supplement of paper PMC10849652
The other results are listed elsewhere or left out.

Protein sequences, listed by entry. Tags and fused reporters are not part of them. Lines headed by an entry give the natural chain unless they say otherwise; changes in a name come on top.
UniProt Q9Y3Y2: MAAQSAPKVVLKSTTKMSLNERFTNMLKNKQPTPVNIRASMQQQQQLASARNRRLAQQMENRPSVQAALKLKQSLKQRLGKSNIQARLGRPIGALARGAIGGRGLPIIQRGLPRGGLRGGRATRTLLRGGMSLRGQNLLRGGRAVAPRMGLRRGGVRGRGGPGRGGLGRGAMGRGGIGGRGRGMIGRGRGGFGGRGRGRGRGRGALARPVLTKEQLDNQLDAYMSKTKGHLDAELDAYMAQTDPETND
UniProt Q15417: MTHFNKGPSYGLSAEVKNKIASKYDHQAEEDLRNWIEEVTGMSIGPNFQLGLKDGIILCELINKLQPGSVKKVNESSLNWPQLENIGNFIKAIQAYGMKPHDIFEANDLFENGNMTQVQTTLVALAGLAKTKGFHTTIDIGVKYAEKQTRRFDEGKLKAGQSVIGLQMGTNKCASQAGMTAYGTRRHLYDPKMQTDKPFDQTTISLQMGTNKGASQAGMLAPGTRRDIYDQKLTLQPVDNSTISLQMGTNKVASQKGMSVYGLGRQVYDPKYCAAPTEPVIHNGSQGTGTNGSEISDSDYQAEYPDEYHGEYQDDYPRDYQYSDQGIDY
UniProt Q96JB2: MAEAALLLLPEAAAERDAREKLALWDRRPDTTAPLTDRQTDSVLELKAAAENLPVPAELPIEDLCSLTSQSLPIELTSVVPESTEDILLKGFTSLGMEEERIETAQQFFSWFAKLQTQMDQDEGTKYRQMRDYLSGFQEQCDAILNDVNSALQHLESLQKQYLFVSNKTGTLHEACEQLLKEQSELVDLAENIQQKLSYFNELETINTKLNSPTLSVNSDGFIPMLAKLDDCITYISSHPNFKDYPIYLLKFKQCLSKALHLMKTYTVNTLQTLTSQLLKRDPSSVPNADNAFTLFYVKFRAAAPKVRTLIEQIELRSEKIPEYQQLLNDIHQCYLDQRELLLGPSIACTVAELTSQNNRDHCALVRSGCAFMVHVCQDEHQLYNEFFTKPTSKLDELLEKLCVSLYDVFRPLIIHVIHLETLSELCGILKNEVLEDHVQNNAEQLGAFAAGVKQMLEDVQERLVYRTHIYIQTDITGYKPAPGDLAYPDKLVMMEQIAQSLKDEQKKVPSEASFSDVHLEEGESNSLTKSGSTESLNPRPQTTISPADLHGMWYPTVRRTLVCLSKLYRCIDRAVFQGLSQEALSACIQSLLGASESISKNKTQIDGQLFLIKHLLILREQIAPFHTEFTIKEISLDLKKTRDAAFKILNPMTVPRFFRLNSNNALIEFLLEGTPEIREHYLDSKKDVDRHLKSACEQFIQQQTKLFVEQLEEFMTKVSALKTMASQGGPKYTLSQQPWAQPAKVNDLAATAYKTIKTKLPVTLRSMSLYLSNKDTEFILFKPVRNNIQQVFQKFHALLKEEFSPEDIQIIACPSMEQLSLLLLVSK
UniProt Q9UFF9, whole entry, looked up: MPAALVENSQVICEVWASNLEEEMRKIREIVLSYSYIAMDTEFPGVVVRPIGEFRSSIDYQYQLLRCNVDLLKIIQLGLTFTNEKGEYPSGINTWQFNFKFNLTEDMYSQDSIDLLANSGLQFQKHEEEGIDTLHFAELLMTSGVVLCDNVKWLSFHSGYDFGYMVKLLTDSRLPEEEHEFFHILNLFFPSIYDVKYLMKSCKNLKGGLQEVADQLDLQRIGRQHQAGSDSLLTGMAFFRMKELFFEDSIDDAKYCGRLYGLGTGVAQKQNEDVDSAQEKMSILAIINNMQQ
UniProt O94985: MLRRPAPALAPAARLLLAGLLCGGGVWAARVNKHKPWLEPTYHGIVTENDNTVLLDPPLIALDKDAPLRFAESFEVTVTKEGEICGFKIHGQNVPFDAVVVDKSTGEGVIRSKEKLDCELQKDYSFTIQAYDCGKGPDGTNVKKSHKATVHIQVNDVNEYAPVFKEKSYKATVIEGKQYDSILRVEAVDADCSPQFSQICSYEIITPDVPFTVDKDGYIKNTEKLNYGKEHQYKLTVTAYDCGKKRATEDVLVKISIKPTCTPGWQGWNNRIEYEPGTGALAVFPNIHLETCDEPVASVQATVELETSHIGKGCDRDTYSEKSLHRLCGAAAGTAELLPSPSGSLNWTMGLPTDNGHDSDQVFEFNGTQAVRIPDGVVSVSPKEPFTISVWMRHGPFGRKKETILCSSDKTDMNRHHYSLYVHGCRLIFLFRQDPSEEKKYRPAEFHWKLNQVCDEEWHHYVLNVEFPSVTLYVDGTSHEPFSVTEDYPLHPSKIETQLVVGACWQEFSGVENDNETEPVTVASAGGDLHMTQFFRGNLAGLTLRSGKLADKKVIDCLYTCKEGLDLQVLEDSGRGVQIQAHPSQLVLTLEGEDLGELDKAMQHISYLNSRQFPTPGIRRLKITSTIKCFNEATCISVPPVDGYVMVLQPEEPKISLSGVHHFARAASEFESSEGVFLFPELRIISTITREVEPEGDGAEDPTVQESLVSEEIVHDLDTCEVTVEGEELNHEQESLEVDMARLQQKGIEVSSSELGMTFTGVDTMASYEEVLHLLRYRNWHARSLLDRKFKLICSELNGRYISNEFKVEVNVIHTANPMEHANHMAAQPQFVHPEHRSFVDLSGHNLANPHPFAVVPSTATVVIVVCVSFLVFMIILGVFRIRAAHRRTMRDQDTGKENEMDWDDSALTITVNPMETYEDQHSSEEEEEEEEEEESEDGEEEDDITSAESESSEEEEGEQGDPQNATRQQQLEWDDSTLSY
UniProt Q8N2M8: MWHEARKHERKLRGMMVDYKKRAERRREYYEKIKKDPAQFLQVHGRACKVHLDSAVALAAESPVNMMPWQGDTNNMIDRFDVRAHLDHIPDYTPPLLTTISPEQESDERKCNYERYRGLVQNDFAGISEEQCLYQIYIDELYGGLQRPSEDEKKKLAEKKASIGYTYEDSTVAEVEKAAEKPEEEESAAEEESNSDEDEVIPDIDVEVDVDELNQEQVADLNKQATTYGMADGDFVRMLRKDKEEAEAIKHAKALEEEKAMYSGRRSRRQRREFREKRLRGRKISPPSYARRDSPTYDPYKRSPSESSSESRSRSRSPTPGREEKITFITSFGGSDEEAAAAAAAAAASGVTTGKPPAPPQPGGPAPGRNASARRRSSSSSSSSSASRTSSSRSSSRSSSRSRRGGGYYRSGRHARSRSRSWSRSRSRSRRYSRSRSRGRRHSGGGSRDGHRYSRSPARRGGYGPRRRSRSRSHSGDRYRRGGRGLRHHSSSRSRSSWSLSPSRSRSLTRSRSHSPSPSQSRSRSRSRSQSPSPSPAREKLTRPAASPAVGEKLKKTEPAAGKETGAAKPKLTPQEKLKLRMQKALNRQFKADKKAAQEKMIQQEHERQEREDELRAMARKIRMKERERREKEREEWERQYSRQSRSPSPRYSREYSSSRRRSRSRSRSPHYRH
UniProt Q9P2E5: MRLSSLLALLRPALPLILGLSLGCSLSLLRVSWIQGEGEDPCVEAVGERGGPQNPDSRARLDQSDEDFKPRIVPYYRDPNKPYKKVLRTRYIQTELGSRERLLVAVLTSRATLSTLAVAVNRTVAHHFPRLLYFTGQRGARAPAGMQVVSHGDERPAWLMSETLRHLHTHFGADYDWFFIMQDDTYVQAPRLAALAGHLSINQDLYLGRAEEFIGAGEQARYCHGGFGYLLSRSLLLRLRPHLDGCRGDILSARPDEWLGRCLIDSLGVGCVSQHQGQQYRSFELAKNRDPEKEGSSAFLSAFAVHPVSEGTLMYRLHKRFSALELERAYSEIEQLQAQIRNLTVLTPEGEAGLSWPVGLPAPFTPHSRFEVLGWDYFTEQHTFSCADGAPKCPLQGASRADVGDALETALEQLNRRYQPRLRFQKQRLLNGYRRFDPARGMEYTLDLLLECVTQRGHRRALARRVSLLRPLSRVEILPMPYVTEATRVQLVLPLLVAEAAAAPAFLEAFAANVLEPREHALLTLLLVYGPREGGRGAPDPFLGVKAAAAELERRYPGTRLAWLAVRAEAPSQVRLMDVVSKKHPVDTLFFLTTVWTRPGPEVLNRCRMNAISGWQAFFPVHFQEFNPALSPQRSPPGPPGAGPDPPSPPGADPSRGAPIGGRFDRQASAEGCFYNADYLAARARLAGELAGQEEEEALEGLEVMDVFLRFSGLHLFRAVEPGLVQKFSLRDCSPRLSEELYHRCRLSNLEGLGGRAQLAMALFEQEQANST
UniProt Q14746: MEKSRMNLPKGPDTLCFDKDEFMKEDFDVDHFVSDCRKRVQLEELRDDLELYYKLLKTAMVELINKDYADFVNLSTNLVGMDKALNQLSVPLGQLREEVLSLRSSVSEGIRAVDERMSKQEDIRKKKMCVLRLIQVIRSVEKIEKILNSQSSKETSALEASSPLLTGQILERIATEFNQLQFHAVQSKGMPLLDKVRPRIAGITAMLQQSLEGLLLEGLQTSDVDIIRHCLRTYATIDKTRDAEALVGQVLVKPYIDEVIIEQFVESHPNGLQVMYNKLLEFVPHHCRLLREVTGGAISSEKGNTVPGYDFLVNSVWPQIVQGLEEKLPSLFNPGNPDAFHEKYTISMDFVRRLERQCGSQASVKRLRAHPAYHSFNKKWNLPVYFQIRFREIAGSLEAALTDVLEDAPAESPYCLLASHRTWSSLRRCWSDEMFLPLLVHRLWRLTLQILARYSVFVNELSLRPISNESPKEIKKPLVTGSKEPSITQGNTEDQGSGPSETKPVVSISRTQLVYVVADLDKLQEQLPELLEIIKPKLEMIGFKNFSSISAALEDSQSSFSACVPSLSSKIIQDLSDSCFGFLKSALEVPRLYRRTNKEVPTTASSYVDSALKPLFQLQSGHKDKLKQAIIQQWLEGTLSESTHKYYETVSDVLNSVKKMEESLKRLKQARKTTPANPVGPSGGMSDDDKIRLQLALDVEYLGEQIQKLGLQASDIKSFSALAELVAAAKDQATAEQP
UniProt Q8N9A8: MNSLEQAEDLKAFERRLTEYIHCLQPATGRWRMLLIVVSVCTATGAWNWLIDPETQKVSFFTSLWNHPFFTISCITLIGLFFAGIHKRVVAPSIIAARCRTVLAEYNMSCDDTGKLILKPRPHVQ
UniProt P62633: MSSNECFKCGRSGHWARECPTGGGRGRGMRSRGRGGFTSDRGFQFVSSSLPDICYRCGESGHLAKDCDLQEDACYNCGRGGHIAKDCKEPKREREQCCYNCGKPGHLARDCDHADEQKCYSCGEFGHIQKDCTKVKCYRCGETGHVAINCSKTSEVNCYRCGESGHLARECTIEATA
UniProt G5E9Z2: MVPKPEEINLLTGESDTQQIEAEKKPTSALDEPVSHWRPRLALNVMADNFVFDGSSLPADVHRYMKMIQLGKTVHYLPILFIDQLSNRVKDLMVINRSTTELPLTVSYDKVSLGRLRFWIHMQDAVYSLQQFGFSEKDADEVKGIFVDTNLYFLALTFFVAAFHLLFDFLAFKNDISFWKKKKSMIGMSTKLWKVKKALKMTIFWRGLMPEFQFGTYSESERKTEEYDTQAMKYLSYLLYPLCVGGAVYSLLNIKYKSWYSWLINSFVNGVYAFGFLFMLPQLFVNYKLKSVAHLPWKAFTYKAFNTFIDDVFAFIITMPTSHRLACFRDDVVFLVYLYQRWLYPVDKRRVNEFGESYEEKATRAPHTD
UniProt Q07065: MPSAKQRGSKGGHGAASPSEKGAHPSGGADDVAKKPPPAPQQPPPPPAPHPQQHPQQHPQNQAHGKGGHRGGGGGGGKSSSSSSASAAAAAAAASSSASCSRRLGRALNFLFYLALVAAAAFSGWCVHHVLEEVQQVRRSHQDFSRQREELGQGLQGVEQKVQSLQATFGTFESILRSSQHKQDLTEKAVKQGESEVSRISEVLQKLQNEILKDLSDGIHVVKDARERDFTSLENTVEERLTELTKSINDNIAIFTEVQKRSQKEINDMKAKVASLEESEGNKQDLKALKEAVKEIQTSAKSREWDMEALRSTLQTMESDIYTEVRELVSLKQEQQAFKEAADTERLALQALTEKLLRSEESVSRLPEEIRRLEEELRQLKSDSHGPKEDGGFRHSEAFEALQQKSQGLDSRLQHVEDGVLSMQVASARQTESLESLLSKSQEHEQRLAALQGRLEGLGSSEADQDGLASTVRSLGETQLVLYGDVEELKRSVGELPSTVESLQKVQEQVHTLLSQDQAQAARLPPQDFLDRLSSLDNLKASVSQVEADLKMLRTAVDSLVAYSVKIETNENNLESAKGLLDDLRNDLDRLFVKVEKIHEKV
UniProt Q92989: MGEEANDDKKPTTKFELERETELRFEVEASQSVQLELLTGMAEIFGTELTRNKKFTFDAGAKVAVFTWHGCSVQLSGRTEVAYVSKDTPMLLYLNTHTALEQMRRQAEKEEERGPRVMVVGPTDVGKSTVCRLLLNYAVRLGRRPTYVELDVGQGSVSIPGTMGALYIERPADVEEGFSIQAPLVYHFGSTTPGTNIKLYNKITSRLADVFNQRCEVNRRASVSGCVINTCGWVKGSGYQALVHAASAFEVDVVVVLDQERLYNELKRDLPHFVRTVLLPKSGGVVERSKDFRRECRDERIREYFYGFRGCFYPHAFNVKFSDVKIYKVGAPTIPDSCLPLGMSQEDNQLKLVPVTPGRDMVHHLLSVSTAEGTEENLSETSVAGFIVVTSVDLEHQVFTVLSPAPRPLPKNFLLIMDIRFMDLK

Experiments:
Assay in all cases: log2 fold change, soluble protein after heating vs DMSO (PISA); higher = thermal stabilisation; K562 cells, 10 uM, 30 min; active = over 0.2 and 3.5 SD of the protein, either way, in both replicates (recomputed)
[1] = compound: COC1=CC=C(C=C1)CN2C=CC3=C2C=C(C=C3)C(=O)NO
Outline: (§1)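 Soluble protein was quantified by TMTpro 16plex LC-MS/MS after channel sums were equalised. It was obtained as the supernatant after 21,000xg for 90 min from pooled aliquots of K562 cells (2×10^6 cells/mL, 10 μM compound, 30 min) heated for 3 min across 48°C-58°C and extracted in PBS with 0.5% NP-40 at 4°C. Thermal stability values are relative to control samples and come from duplicates. They are given as log2 fold changes.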

[2] = compound: CON(C)C(=O)N1N=C(c2cc(F)ccc2F)S[C@@]1(CCCN)c1ccccc1 [filanesib]
Outline: as §1

[3] = compound: CO[C@H]1C[C@@H]2CC[C@@H](C)[C@@](O)(O2)C(=O)C(=O)N2CCCC[C@H]2C(=O)O[C@H]([C@H](C)C[C@@H]2CC[C@H](n3cnnn3)[C@H](OC)C2)CC(=O)[C@H](C)/C=C(\C)[C@@H](O)[C@@H](OC)C(=O)[C@H](C)C[C@H](C)/C=C/C=C/C=C/1C [zotarolimus]
Outline: as §1

[4] = compound: COc1cc(Nc2ncc3c(n2)-c2ccc(Cl)cc2C(c2c(F)cccc2OC)=NC3)ccc1C(=O)O [alisertib]
Outline: as §1

[5] = compound: COc1cccc2cc(-c3nc([C@H]4CC[C@H](C(=O)O)CC4)n4ncnc(N)c34)[nH]c12
Outline: as §1

[6] = compound: CS(=O)(=O)c1ccc(-c2cnc(N)c(C(=O)Nc3ccccc3)n2)cc1
Outline: as §1

[7] = compound: C[C@@H](Oc1cc(-c2cnn(C3CCNCC3)c2)cnc1N)c1c(Cl)ccc(F)c1Cl [crizotinib]
Outline: as §1

[8] = compound: C[C@@H]1COCCN1C2=NC(=NC(=C2)C3(CC3)S(=O)(=O)C)C4=C5C=CNC5=CC=C4
Outline: as §1

[9] = compound: C[C@H](C1=CC=C(C=C1)C(=O)NC2=C3C=CNC3=NC=C2)N
Outline: as §1

[10] = compound: C[C@H](Nc1ncnc2nc[nH]c12)c1cc2cccc(Cl)c2c(=O)n1-c1ccccc1 [duvelisib]
Outline: as §1

[11] = compound: Cc1cc(Nc2cc(N3CCN(C)CC3)nc(Sc3ccc(NC(=O)C4CC4)cc3)n2)n[nH]1 [tozasertib]
Outline: as §1

[12] = compound: Cc1cc(SCc2sc(-c3ccc(C(F)(F)F)cc3)nc2C)ccc1OCC(=O)O
Outline: as §1

[13] = compound: Cc1ccc(-n2nc(C(C)(C)C)cc2NC(=O)Nc2ccc(OCCN3CCOCC3)c3ccccc23)cc1 [doramapimod]
Outline: as §1

[14] = compound: COc1cc(C(=O)O)ccc1NC(=O)[C@@H]1N[C@@H](CC(C)(C)C)[C@](C#N)(c2ccc(Cl)cc2F)[C@H]1c1cccc(Cl)c1F [idasanutlin]
Outline: as §1

[15] = compound: COc1cc2nc(-c3cc(F)ccc3O)nc(N[C@@H]3CNC[C@H]3C(C)(C)O)c2cc1OC
Outline: as §1

[16] = compound: COc1cc2ncnc(Nc3ccc(F)c(Cl)c3)c2cc1OCCCN1CCOCC1 [gefitinib]
Outline: as §1

[17] = compound: CS(=O)(=O)CCNCc1ccc(-c2ccc3ncnc(Nc4ccc(OCc5cccc(F)c5)c(Cl)c4)c3c2)o1 [lapatinib]
Outline: as §1

[18] = compound: CS(=O)(=O)N1CCN(Cc2cc3nc(-c4cccc5[nH]ncc45)nc(N4CCOCC4)c3s2)CC1 [pictilisib]
Outline: as §1

[19] = compound: Cc1cc(Nc2cc(CN3CCOCC3)c3nc(C)c(Cc4ccc(Cl)cc4F)n3n2)n[nH]1 [gandotinib]
Outline: as §1

[20] = compound: Cc1ccc(C(=O)N(CCCN)[C@@H](c2nc3cc(Cl)ccc3c(=O)n2Cc2ccccc2)C(C)C)cc1 [ispinesib]
Outline: as §1

Target | log2 fold change [1] | log2 fold change [2] | log2 fold change [3] | log2 fold change [4] | log2 fold change [5] | log2 fold change [6] | log2 fold change [7] | log2 fold change [8] | log2 fold change [9] | log2 fold change [10] | log2 fold change [11] | log2 fold change [12] | log2 fold change [13] | log2 fold change [14] | log2 fold change [15] | log2 fold change [16] | log2 fold change [17] | log2 fold change [18] | log2 fold change [19] | log2 fold change [20]
CHTOP isoform 3 (UniProt Q9Y3Y2) | inactive: -0.065 | inactive: 0.37 | inactive: 0.226 | inactive: -0.177 | inactive: -0.294 | inactive: -0.43 | inactive: -0.256 | inactive: -0.211 | inactive: 0.215 | inactive: 0.137 | inactive: 0.067 | inactive: -0.038 | inactive: 0.059 |  |  |  |  |  |  | 
CNN3 (UniProt Q15417) |  | inactive: -0.006 | inactive: 0.005 | inactive: -0.031 | inactive: -0.026 | inactive: 0.044 |  | inactive: 0.075 | inactive: -0.066 |  |  | inactive: 0.15 |  | inactive: -0.04 | inactive: 0.111 | inactive: 0.026 | inactive: -0.032 | inactive: 0.04 | inactive: -0.1 | 
COG3 (UniProt Q96JB2) | inactive: 0.125 |  | inactive: 0.049 | inactive: 0.141 | inactive: -0.15 |  | inactive: -0.061 | inactive: -0.105 | inactive: 0.363 | inactive: -0.097 |  | inactive: 0.261 | inactive: 0.004 |  |  |  |  |  |  | inactive: -0.019
CNOT8 (UniProt Q9UFF9) | inactive: -0.058 | inactive: -0.031 | inactive: 0.074 | inactive: -0.242 | inactive: 0.076 | inactive: 0.064 | inactive: -0.029 | inactive: -0.086 | inactive: 0.222 | inactive: -0.1 | inactive: -0.074 | inactive: 0.174 | inactive: -0.054 |  | inactive: -0.053 | inactive: -0.016 | inactive: 0.142 |  |  | inactive: -0.07
COG4 (UniProt Q9H9E3) | inactive: -0.155 | inactive: -0.037 | inactive: 0.189 |  |  | inactive: -0.172 | inactive: -0.143 | inactive: -0.212 | inactive: 0.215 | inactive: 0.003 | inactive: 0.185 | inactive: 0.145 | inactive: 0.149 |  |  | inactive: -0.048 |  | inactive: -0.278 | inactive: 0.052 | inactive: -0.073
CLSTN1 (UniProt O94985) | inactive: 0.029 | inactive: 0.168 | inactive: -0.053 | inactive: 0.625 | inactive: 0.027 | inactive: -0.055 | inactive: -0.007 |  | inactive: 0.102 | inactive: 0.301 | inactive: -0.171 | inactive: -0.249 | inactive: 0.022 | inactive: -0.109 | inactive: 0.127 |  | inactive: -0.4 |  | inactive: -0.095 | inactive: -0.826
CLASRP (UniProt Q8N2M8) | inactive: 0.017 | inactive: 0.113 | inactive: -0.332 |  |  | inactive: 0.116 | inactive: 0.12 | inactive: -0.044 | inactive: -0.075 |  |  |  | inactive: -0.069 | inactive: -0.021 |  | inactive: 0.267 |  |  | inactive: 0.12 | 
CHPF2 (UniProt Q9P2E5) |  | inactive: -0.052 | inactive: 0.083 | inactive: -0.242 | inactive: -0.016 | inactive: 0.082 |  | inactive: -0.099 | inactive: 0.177 | inactive: -0.078 | inactive: -0.098 | inactive: 0.037 |  | inactive: 0.07 | inactive: -0.005 | inactive: 0.402 | inactive: 0.103 | inactive: -0.041 | inactive: -0.033 | inactive: -0.056
CHURC1-FNTB (UniProt B4DL54) | inactive: 0.004 | inactive: 0.071 |  | inactive: 0.057 | inactive: -0.02 | inactive: 0.059 | inactive: -0.044 | inactive: 0.058 |  |  | inactive: -0.026 |  | inactive: -0.095 | inactive: 0.006 | inactive: -0.007 |  | inactive: -0.052 | inactive: 0.055 | inactive: -0.094 | inactive: 0.047
COG2 (UniProt Q14746) | inactive: -0.006 | inactive: 0.25 | inactive: -0.048 | inactive: 0.58 | active: 0.631 | inactive: -0.029 | inactive: -0.17 | inactive: 0.094 | inactive: 0.483 |  |  | inactive: 0.061 | inactive: 0 | inactive: -0.053 |  | inactive: -0.187 |  |  |  | inactive: -0.264
CNEP1R1 isoform 2 (UniProt Q8N9A8) |  |  | inactive: -0.115 |  |  |  |  |  | inactive: -0.001 |  | inactive: -0.26 |  |  | inactive: 0 |  |  |  |  |  | 
CNBP isoform 4 (UniProt P62633) |  |  |  | inactive: -0.085 | inactive: 0.027 |  |  |  |  |  |  |  |  |  |  | inactive: 0 |  |  |  | 
CLPTM1L (UniProt G5E9Z2) |  | inactive: -0.235 | inactive: -0.101 | inactive: -0.199 | inactive: 0.099 | inactive: -0.317 |  | inactive: 0.073 | inactive: 0.067 |  |  |  |  | inactive: -0.446 |  | inactive: -0.142 |  |  | inactive: -0.382 | 
CMTM4 (UniProt Q8IZR5) |  | inactive: 0.076 |  | inactive: -0.105 | inactive: 0.06 | inactive: 0.01 |  | inactive: -0.092 |  |  | inactive: -0.042 |  |  | inactive: -0.145 |  | inactive: 0.169 |  |  |  | 
CMIP (UniProt Q8IY22) |  | inactive: 0.257 |  | inactive: -0.149 | inactive: -0.427 | inactive: 0.147 |  | inactive: -0.257 |  |  |  |  |  |  |  |  |  | inactive: -0.001 | inactive: 0.129 | inactive: 0.036
CLIP1 isoform 2 (UniProt P30622) |  | inactive: 0.057 | inactive: 0.044 | inactive: -0.705 | inactive: -0.076 | inactive: -0.014 |  | inactive: 0.072 | inactive: -0.01 |  |  |  |  |  | inactive: 0.072 | inactive: 0.012 | inactive: 0.03 |  | inactive: 0.105 | inactive: 0.034
CMYA5 (UniProt Q8N3K9) |  | inactive: 0.144 | inactive: -0.335 | inactive: -0.047 | inactive: -0.002 | inactive: 0.269 |  |  | inactive: 0.515 |  | inactive: -0.241 |  |  |  |  | inactive: -0.013 |  |  |  | inactive: 0.088
CKAP4 (UniProt Q07065) |  | inactive: -0.082 | inactive: -0.007 | inactive: 0.045 | inactive: 0.038 | inactive: 0.072 |  |  | inactive: -0.144 | inactive: 0.163 | inactive: -0.01 | inactive: -0.056 |  | inactive: 0.023 | inactive: -0.005 | inactive: 0.072 | inactive: 0.012 |  |  | inactive: 0.151
CLP1 (UniProt Q92989) |  | inactive: -0.066 | inactive: -0.153 | inactive: 0.067 | inactive: 0.052 | inactive: 0.027 |  |  | inactive: 0.057 |  | inactive: -0.023 |  |  |  |  |  |  |  |  | 

Reprinted at random: 2 records from the list
Target | log2 fold change [1] | log2 fold change [2] | log2 fold change [3] | log2 fold change [4] | log2 fold change [5] | log2 fold change [6] | log2 fold change [7] | log2 fold change [8] | log2 fold change [9] | log2 fold change [10] | log2 fold change [11] | log2 fold change [12] | log2 fold change [13] | log2 fold change [14] | log2 fold change [15] | log2 fold change [16] | log2 fold change [17] | log2 fold change [18] | log2 fold change [19] | log2 fold change [20]
CLPTM1L (UniProt G5E9Z2) |  | inactive: -0.235 | inactive: -0.101 | inactive: -0.199 | inactive: 0.099 | inactive: -0.317 |  | inactive: 0.073 | inactive: 0.067 |  |  |  |  | inactive: -0.446 |  | inactive: -0.142 |  |  | inactive: -0.382 | 
CNBP isoform 4 (UniProt P62633) |  |  |  | inactive: -0.085 | inactive: 0.027 |  |  |  |  |  |  |  |  |  |  | inactive: 0 |  |  |  | 
